# According to article PMC10104629:
# Chains of the proteins cited; added tags and fusions are not shown.
# UniProt P43268: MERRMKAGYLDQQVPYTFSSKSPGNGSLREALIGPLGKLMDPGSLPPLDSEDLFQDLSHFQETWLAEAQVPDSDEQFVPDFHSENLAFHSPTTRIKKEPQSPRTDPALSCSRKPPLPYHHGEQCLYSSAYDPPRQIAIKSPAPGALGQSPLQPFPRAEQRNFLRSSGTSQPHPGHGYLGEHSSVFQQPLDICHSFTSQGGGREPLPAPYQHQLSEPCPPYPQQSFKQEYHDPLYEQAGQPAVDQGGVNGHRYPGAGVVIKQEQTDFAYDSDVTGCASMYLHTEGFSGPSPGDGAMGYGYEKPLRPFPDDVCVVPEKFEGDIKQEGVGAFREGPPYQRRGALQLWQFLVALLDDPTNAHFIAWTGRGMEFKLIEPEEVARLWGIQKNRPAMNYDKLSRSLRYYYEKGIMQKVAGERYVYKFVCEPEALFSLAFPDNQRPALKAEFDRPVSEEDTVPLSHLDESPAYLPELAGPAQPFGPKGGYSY
# Results are given in words; binding and its absence hold for the method and conditions named. Binding seen in cells or lysates may run through a third protein. Some binding calls cover weakened binding; strength is not graded here.
# Molecular target: FLAG-ETV4 WT (human) (UniProt P43268)
# Assay: co-IP; lysates of UM-UC-3 cells stably transfected with empty vector, ETV4 WT or Y392F; immunoprecipitation with anti-FLAG, anti-PTK6 or control IgG at 4 °C overnight, Dynabeads Protein A, immunoblot with anti-FLAG or anti-PTK6
substance,measurement,value
Tyrosine kinase PTK6 (from UniProt Q13882 1-451) (enzyme),binding,binds
